Measurements from PubChem BioAssay AID1347423 (Functional Genomics Laboratory (NCATS/FGL), 2020).
In all, about 52,000 sequences went through this assay and about 210 (0.4%) were called active.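 The calls were made as follows: active = gene whose silencing raises cell survival under the drug, median off-target-corrected z-score across its silencing RNAs 2 or more; inactive = the rest.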 This is one part of the list.

Assay: Resistance to Poly (ADP-Ribose) Polymerase inhibitor: Gene Identification via Genome-wide siRNA Screen
Conditions: mouse BRCA2 R2336H ES cells, olaparib, CellTiter-Glo viability; stronger effect = higher value
Description: The role of Poly (ADP-Ribose) Polymerase (PARP) proteins in DNA repair has been elegantly utilized for the synthetic lethality-based treatment of BRCA-deficient tumors by PARP inhibitors. PARP inhibitors are now being used for treatment of BRCA-deficient breast and ovarian cancers. […] While several mechanisms of drug resistance have been identified, majority of these tumors develop drug resistance due to unknown causes. To identified novel regulators of chemo-resistance in BRCA2-mutated cells, we performed a genome wide siRNA library screen. We have found ES cells expressing a hypomorphic allele of BRCA2 to be hypersensitive to PAPP inhibitors (such as olaparib). We used ES cells expressing a mutant allele of BRCA2 that has a single amino acid substitution at position 2336 (arginine to histidine, R2336H). The screen was conducted using an Ambion (Thermo) Silencer Mouse Genome siRNA collection. The library targets 17,575 mouse genes with 3 siRNAs per gene. TET2 (E130014J05Rik) was identified as a top candidate.
Transfections were performed in 384 well plates (Corning 3707). Plates were coated with 0.1% gelatin in H2O overnight at ambient temperature. Gelatin solution was aspirated (BioTek EL406) and siRNAs were printed using a Bravo VPrep liquid handler integrated within a BioCel automation platform (Agilent). Cell viability was measured using CellTiter Glo (Promega). For transfections, […] of serum free media containing Lipofectamine RNAiMax […] was added to wells containing siRNA (0.8pmol). Lipid and siRNA were allowed to complex for 45 min at ambient temperature before addition of 1000 cells in DMEM, 30% FBS to yield final transfection mixtures containing 20 nM siRNA in DMEM, 15% FBS. PARPi (olaparib, AZD2281) was added 48 h post-transfection (500 nM) and viability (CellTiter Glo, Promega) was assayed 72 h later on a PerkinElmer Envision 2104 Multilabel plate reader. Ambion Silencer Select Negative Control #2 was incorporated on all screening plates (16 wells) and the median negative control value on each plate was used for normalization. An siRNA targeting Trp53 was used as a positive control. This control yielded a median protective effect of ~1.9 fold versus negative control throughout the screen. The median absolute deviation (MAD) based z-score was calculated for each siRNA. Genes were then ranked by taking the median value for all siRNAs tested against a given gene. Scores were also adjusted for seed-based off-target effects to help deprioritize likely false positives.

Sequence	z-score
GGAUGUGUUAUCGGUGCUCTT against bM64F17.1	inactive: 4.24
GGGUGUUCUAAGUAGUCGCTT against Cdk3	inactive: -0.333
GGAUCCUCUUCUAUCUUUATT against Pycr1	inactive: 0.568
CCAGUGACAUUCAAUACCUTT against 4933421E11Rik	inactive: -0.676
GGCUCAAAUGGUCACCAAUTT against 1700060E18Rik	inactive: 0.193
GCUUAUAUGGCCUGAGAGATT against AI316787	inactive: -0.634
GGAUAAGAUAAUGUCUGUGTT against Olfr716	inactive: -2.47
GGUUCUUGAAACACUUUACTT against 0610039P13Rik	inactive: 0.209
GCCAGUGGUAUGAGCUUGUTT against Dullard	inactive: 0.245
GCGUAUCUGAUUGACAGAGTT against Kctd2	inactive: 1.15
GCUAUUGAGUCGUGAGACUTT against Apoc3	inactive: -2.39
GGUUUGACUAACUUUCCUUTT against Fbxl15	inactive: 0.192
CCAUAACCAACGUGUUCGUTT against Adrb3	inactive: 1.3
GGUUACCUCCACCAGAUCATT against Avpi1	inactive: -2.35
GCUAACAAAUGUCAGCAUGTT against Popdc3	inactive: 0.884
CCACACCUUCAAAGCGAGATT against D930040M24Rik	inactive: 0.276
GGAAUCUGGGCUCUUACACTT against Tcfap2a	inactive: 1.61
GGCUGAAGUUCAUGAUGGCTT against Cd209d	inactive: 0.683
CCUAUGUAUGUCAACAUACTT against 1700028P14Rik	inactive: -0.0328
GGAGAAGAAACUGAACCUGTT against Ppan	inactive: 0.184
GCUAUGAAGCAAUUGUGGATT against Fasn	inactive: 0.546
GCUUUGAUUUAUGAGGUCATT against 4930506L13Rik	inactive: -1.82

Sequence	z-score
GGAAAGUGUUCUCUACAUGTT against Olfr1093	inactive: 0.077
GGUGGAAUUUACAUAAUGATT against Igsf11	inactive: -0.629
GGUGUUAGAAGUCAACGGUTT against Pard6b	inactive: 0.00297
GGGAUACAUCUAUUGAAUCTT against BC021442	inactive: 0.501
GCUGAGUUGGCUCAUCAACTT against Fbxl10	inactive: -0.09
CCUGAAAGAUGCUCUCUAUTT against Inpp4b	inactive: 1.25
GGCUGUUCAAAAAUUUCGGTT against Sox17	inactive: -0.703
CCGAAUUUCCAAAAAUGCATT against Foxd3	inactive: -0.486
CCCUAGGGUGAUGAAGCAUTT against Ckmt2	inactive: 0.274
GGGCAAACUCAUUUUUUGATT against F10	inactive: 0.315
GGGUCUUAUGGAAGUGUUUTT against Stk3	inactive: 1.08
GGGAAUACUGUGAACACCGTT against LOC245297	inactive: 1.73
GGAAUUCUCUCAGCAGAAGTT against 1110038F14Rik	inactive: -1.88
GAUAUGUGUACACUUCUGCTT against V1ri5	inactive: 0.234
GGCCCACGUCCUGUACAUUTT against Tdrd1	inactive: 1.24
GGGUUAUAGGUGUGUGUGCTT against Gemin6	inactive: 0.258
CCGGAAAAUGCUACUGAAATT against Pcdhb10	inactive: 0.424
GCUCUAGUUCUGUAAAGUGTT against D630004N19Rik	inactive: -0.755
GGAACAGAUAAAGAGGGAATT against Zfp326	inactive: -1.75
GGUUAAAAUUGGCUAAAUGTT against 6030405A18	inactive: -0.201
CGUGUAAAAGCCGGAUUGATT against 1500015L24Rik	inactive: 0.909
GGCAUUCUCCACGUGCUCUTT against Olfr273	inactive: -0.846

Looked up above.
z-score, GAUAUGUGUACACUUCUGCTT against V1ri5 is entered as inactive: 0.234
z-score, GGCUGUUCAAAAAUUUCGGTT against Sox17 is entered as inactive: -0.703
z-score, GGAAAGUGUUCUCUACAUGTT against Olfr1093 is entered as inactive: 0.077
z-score, GGUGGAAUUUACAUAAUGATT against Igsf11 is entered as inactive: -0.629

Additional results.

Sequence	z-score
GGGCUCGAAUCCAUCACAGTT against Pcdhb6	inactive: -0.5
GCAUUCUGAAGCUUCCAUCTT against Olfr1112	inactive: 0.505
GGGUUUCCUGGAUUCUCAUTT against E030006K04Rik	inactive: 0.0254
GGAAGUCUCAGACCACAACTT against Ech1	inactive: -1.02
GCCAAGGAUGCAGAUAUCGTT against AW491445	inactive: 0.565
CGGUGUUCGCUUUUCAGAATT against 2010013E08Rik	inactive: 0.494
CGUAGUCGAUUCAGGAGAGTT against LOC382243	inactive: -0.483
CCAUUAGGAUGACCUCCAUTT against Slc38a3	inactive: 0.523
GUGGAUUAGGGAAUUUCAUTT against Mrgprb1	inactive: -0.48
GCCUGAAAAGUUUAAACUCTT against Nalp9b	inactive: 0.438
GGAAACAAAAAGAAUGCUGTT against Apex1	inactive: 0.248
GGUUGUUAGAGGUAAUUUGTT against Zfp128	inactive: 0.346
CCUUCAACUCCUCACUUCCTT against H2-D1	inactive: 0.583
GGUACAUCUAUUUCUUGUUTT against Ncam2	inactive: -0.59
GGUCAAGCAAGUGUUGGUUTT against Gart	inactive: -0.808
GGCAACUUGGGAGUUUCACTT against Kcnab1	inactive: 1.3
GGUACACAGCAGUGGUCAUTT against Drd3	inactive: 0.0272
GGUUUUUAACCAAACAUGATT against Actr3	inactive: 0.126
GGUCAACAACAACUCCGUUTT against Ret	inactive: -0.944
GGAAUUUUAGCGGAUGAUATT against Smarca3	active: 1.54
CCUCAAUUCGGACAAGCUGTT against Scnn1a	inactive: -0.931
GGGAAAGAAAGGGUACAAUTT against D430033A06Rik	inactive: 0.0745
